The record followed here is patent US7265267.

Amino acid sequences for entries named in this document (tags omitted). A change or cut given only in a name is not applied to a line headed by its entry.
UniProt P04386: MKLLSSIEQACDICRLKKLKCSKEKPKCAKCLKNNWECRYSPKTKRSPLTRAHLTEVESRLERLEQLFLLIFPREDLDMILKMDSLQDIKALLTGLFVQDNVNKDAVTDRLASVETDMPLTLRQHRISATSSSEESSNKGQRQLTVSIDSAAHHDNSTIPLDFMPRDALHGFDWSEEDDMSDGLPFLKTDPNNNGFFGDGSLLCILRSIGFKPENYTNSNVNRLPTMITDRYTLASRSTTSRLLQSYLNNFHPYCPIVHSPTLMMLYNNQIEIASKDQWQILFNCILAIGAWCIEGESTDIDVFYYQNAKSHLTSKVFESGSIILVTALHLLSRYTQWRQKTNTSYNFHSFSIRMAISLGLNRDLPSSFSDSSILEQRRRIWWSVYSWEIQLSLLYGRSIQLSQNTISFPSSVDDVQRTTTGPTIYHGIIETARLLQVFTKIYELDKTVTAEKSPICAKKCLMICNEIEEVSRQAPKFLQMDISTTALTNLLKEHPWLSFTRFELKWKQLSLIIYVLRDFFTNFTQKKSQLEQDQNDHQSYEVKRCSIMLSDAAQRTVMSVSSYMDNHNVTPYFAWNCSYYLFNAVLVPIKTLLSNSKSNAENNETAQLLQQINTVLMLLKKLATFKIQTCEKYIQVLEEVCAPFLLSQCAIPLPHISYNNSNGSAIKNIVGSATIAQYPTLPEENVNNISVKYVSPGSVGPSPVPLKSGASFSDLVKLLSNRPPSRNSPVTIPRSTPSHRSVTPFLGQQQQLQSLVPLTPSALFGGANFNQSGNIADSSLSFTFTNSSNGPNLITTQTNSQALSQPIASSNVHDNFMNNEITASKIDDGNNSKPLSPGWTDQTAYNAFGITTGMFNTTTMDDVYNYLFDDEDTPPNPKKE
UniProt P24100: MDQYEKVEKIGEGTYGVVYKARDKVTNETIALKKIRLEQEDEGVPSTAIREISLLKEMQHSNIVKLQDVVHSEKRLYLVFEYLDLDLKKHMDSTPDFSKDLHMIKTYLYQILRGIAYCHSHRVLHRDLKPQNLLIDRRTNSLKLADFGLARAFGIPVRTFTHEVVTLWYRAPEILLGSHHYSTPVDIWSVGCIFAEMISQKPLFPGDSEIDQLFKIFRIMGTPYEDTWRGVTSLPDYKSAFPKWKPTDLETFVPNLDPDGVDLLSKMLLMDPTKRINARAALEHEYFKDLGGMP

These are yes or no findings as the source states them, for the method shown. Some binding calls cover weakened binding; strength is not graded here. Where a sequence is shown, tags or fusion partners need not be part of it.

The target in test [1] is T1, GAL4 DNA-binding domain-CDC2aAt fusion (pGBTCDC2A bait) (Arabidopsis thaliana) (UniProt P04386+P24100). The test is described as follows: yeast two-hybrid, growth without histidine.
For test [2], the target named is T1, GAL4 DNA-binding domain-CDC2aAt fusion (pGBTCDC2A bait) (Arabidopsis thaliana). The test is described as follows: yeast two-hybrid retransformation, growth without histidine.

B1: GAL4 activation domain-LDV39 fusion (pGADLDV39) (protein, not shown: large carriers)
chain: RRDSPPVEEQCQIEEEDSSVSCCSTSEEKSKRRIEFVDLEENNGDDRETETSWIYDDLNKSEESMNMDSSSVAVEDVESRRRLRKSLHETVKEAELEDFFQVAEKDLRNKLLECSMKYNFDFEKDEPLGGGRYEWVKLNP
On to B1, for which the binding result in test [1] and in test [2] was “binds” in each case.

B2: GAL4 activation domain-LDV66 fusion (pGADLDV66) (protein, not shown: large carriers)
chain: VNSVPVAQSSNEDECFDNFVSVQVSCGENSLGFESRHSTRESTPCNFVEDMEIMVTPGSSTRSMCRATKEYTREQDNVIPTTSEMEEFFAYAEQQQQRLFMEKYNFDIVNDIPLSGRYEWVQVKP
With B2, the binding entry in test [1] and in test [2] was “binds” in each case.

B3: GAL4 activation domain-LDV159 fusion (pGADLDV159) (protein, Arabidopsis thaliana, UniProt Q67Y93 1-191, looked up, not shown: large carriers)
chain: MVRKYRKAKGIVEAGVSSTYMQLRSRRIVYVRSEKSSSVSVVGDNGVSSSCSGSNEYKKKELIHLEEEDKDGDTETSTYRRGTKRKLFENLREEEKEELSKSMENYSSEFESAVKESLDCCCSGRKTMEETVTAEEEEKAKLMTEMPTESEIEDFFVEAEKQLKEKFKKKYNFDFEKEKPLEGRYEWVKLE
Regarding B3, the binding entry in test [1] and in test [2] was “binds” throughout.
